# Experimental data published in the supplement of paper PMC8728848.
# The other results are listed elsewhere or left out.
# What was measured:
# Assay in all cases: glycan array binding signal (z-score within array); higher = stronger binding
# Settings in all cases: glycan notation: IUPAC condensed, linker removed
# [1] = biological target: Neu5Ac(a2-6)Gal(b1-4)GlcNAc(b1-3)Gal(b1-4)GlcNAc(b1-3)Gal(b1-4)GlcNAc(b1-2)Man(a1-3)[Neu5Ac(a2-6)Gal(b1-4)GlcNAc(b1-3)Gal(b1-4)GlcNAc(b1-3)Gal(b1-4)GlcNAc(b1-2)Man(a1-6)]GalNAc
# Method in brief: (§1)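 The Consortium for Functional Glycomics database supplied 3228 glycan arrays, of which those lacking an available protein sequence were dropped. The binding signal, a within-array Z-score, was averaged across arrays of the same protein sequence and across linkers. Negative scores can be read as non-binding.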
# [2] = biological target: Neu5Ac(a2-6)Gal(b1-4)GlcNAc(b1-3)Gal(b1-4)GlcNAc(b1-3)GalNAc
# Method in brief: as §1
# [3] = biological target: Neu5Ac(a2-6)Gal(b1-4)GlcNAc(b1-3)Gal(b1-4)GlcNAc(b1-3)[Neu5Ac(a2-6)Gal(b1-4)GlcNAc(b1-3)Gal(b1-4)GlcNAc(b1-6)]GalNAc
# Method in brief: as §1
# [4] = biological target: Neu5Ac(a2-6)Gal(b1-4)GlcNAc(b1-3)Gal(b1-4)GlcNAc(b1-6)[Gal(b1-3)]GalNAc
# Method in brief: as §1
# [5] = biological target: Neu5Ac(a2-6)Gal(b1-4)GlcNAc(b1-3)Gal(b1-4)[Fuc(a1-3)]GlcNAc(b1-3)Gal(b1-4)[Fuc(a1-3)]GlcNAc
# Method in brief: as §1
# [6] = biological target: Neu5Ac(a2-6)Gal(b1-4)GlcNAc(b1-3)GalNAc
# Method in brief: as §1
# [7] = biological target: Neu5Ac(a2-6)Gal(b1-4)GlcNAc(b1-3)[Neu5Ac(a2-6)Gal(b1-4)GlcNAc(b1-6)]GalNAc
# Method in brief: as §1
# [8] = biological target: Neu5Ac(a2-6)Gal(b1-4)GlcNAc(b1-6)GalNAc
# Method in brief: as §1
# [9] = biological target: Neu5Ac(a2-6)Gal(b1-4)GlcNAc(b1-6)[Gal(b1-3)GlcNAc(b1-3)]Gal(b1-4)Glc
# Method in brief: as §1
# [10] = biological target: Neu5Ac(a2-6)Gal(b1-4)GlcNAc(b1-6)[Gal(b1-3)]GalNAc
# Method in brief: as §1
# [11] = biological target: Neu5Ac(a2-6)Gal(b1-4)GlcNAc6S
# Method in brief: as §1
# [12] = biological target: Neu5Ac(a2-6)GalNAc
# Method in brief: as §1
# [13] = biological target: Neu5Ac(a2-6)GalNAc(b1-4)GlcNAc
# Method in brief: as §1
# [14] = biological target: Neu5Ac(a2-6)GalNAc(b1-4)GlcNAc6S
# Method in brief: as §1
# [15] = biological target: Neu5Ac(a2-6)GlcNAc(b1-4)GlcNAc
# Method in brief: as §1
# [16] = biological target: Neu5Ac(a2-6)GlcNAc(b1-4)GlcNAc(b1-4)GlcNAc
# Method in brief: as §1
# [17] = biological target: Neu5Ac(a2-8)Neu5Ac
# Method in brief: as §1
# [18] = biological target: Neu5Ac(a2-8)Neu5Ac(a2-3)Gal(b1-3)GalNAc(b1-4)[Neu5Ac(a2-3)]Gal(b1-4)Glc
# Method in brief: as §1
# [19] = biological target: Neu5Ac(a2-8)Neu5Ac(a2-3)Gal(b1-3)GalNAc(b1-4)[Neu5Ac(a2-8)Neu5Ac(a2-3)]Gal(b1-4)Glc
# Method in brief: as §1
# [20] = biological target: Neu5Ac(a2-8)Neu5Ac(a2-3)Gal(b1-4)Glc
# Method in brief: as §1
# [21] = biological target: Neu5Ac(a2-8)Neu5Ac(a2-3)Gal(b1-4)GlcNAc
# Method in brief: as §1
# [22] = biological target: Neu5Ac(a2-8)Neu5Ac(a2-3)[Gal(b1-3)GalNAc(b1-4)]Gal(b1-4)Glc
# Method in brief: as §1
# [23] = biological target: Neu5Ac(a2-8)Neu5Ac(a2-3)[GalNAc(b1-4)]Gal(b1-4)Glc
# Method in brief: as §1
# [24] = biological target: Neu5Ac(a2-8)Neu5Ac(a2-8)Neu5Ac
# Method in brief: as §1
# [25] = biological target: Neu5Ac(a2-8)Neu5Ac(a2-8)Neu5Ac(a2-3)Gal(b1-4)Glc
# Method in brief: as §1
# [26] = biological target: Neu5Ac(a2-8)Neu5Ac(a2-8)Neu5Ac(a2-3)[Gal(b1-3)GalNAc(b1-4)]Gal(b1-4)Glc
# Method in brief: as §1
# [27] = biological target: Neu5Ac(a2-8)Neu5Ac(a2-8)Neu5Ac(a2-3)[GalNAc(b1-4)]Gal(b1-4)Glc
# Method in brief: as §1
# [28] = biological target: Neu5Ac(a2-8)Neu5Ac(a2-8)Neu5Ac(a2-8)Neu5Ac(a2-3)[GalNAc(b1-4)]Gal(b1-4)Glc
# Method in brief: as §1
# [29] = biological target: Neu5Ac(a2-8)Neu5Gc(a2-3)Gal(b1-4)GlcNAc
# Method in brief: as §1
# [30] = biological target: Neu5Ac(b2-6)Gal(b1-4)GlcNAc
# Method in brief: as §1
# [31] = biological target: Neu5Ac(b2-6)GalNAc
# Method in brief: as §1
# [32] = biological target: Neu5Ac9Ac(a2-3)Gal(b1-3)GlcNAc
# Method in brief: as §1
# [33] = biological target: Neu5Ac9Ac(a2-3)Gal(b1-4)GlcNAc
# Method in brief: as §1
# [34] = biological target: Neu5Ac9Ac(a2-6)Gal(b1-4)GlcNAc
# Method in brief: as §1
# [35] = biological target: Neu5Gc(a2-3)Gal(b1-3)GlcNAc
# Method in brief: as §1
# [36] = biological target: Neu5Gc(a2-3)Gal(b1-3)[Fuc(a1-4)]GlcNAc
# Method in brief: as §1
# [37] = biological target: Neu5Gc(a2-3)Gal(b1-4)Glc
# Method in brief: as §1
# [38] = biological target: Neu5Gc(a2-3)Gal(b1-4)GlcNAc
# Method in brief: as §1
# [39] = biological target: Neu5Gc(a2-3)Gal(b1-4)GlcNAc(b1-3)Gal(b1-4)GlcNAc(b1-2)Man(a1-3)[Neu5Gc(a2-3)Gal(b1-4)GlcNAc(b1-3)Gal(b1-4)GlcNAc(b1-2)Man(a1-6)]Man(b1-4)GlcNAc(b1-4)GlcNAc
# Method in brief: as §1
# [40] = biological target: Neu5Gc(a2-3)Gal(b1-4)[Fuc(a1-3)]GlcNAc
# Method in brief: as §1
# [41] = biological target: Neu5Gc(a2-6)Gal(b1-4)GlcNAc
# Method in brief: as §1
# [42] = biological target: Neu5Gc(a2-6)GalNAc
# Method in brief: as §1
# [43] = biological target: Neu5Gc(a2-8)Neu5Ac(a2-3)Gal(b1-4)GlcNAc
# Method in brief: as §1
# [44] = biological target: Neu5Gc(a2-8)Neu5Gc(a2-3)Gal(b1-4)GlcNAc
# Method in brief: as §1
# [45] = biological target: Neu5Gc(a2-8)Neu5Gc(a2-3)Gal(b1-4)GlcNAc(b1-3)Gal(b1-4)GlcNAc
# Method in brief: as §1
# [46] = biological target: Neu5Gc(a2-8)Neu5Gc(a2-6)Gal(b1-4)GlcNAc
# Method in brief: as §1
# [47] = biological target: Neu5Gc(b2-6)Gal(b1-4)GlcNAc
# Method in brief: as §1
binder,measurement,setting,value
"Clec12b (Mus musculus), Q149M0 (protein) MSDEVTYATLMLQDSARVRGNQDGNNLRKEGHPAQSSLWRGAALSLMTLCLVLVTGLVTLATMFLQVSNDINSDSEKLSQLQKSIHPQQDNLSESLNSSRKSLTEESLQSQISALLERQEQMATKLCKEFLIHASDHKCNPCPKTWQWYGNSCYYFSINEEKSWSDSRKDCIDKNATLVKIDSTEERDLLQSQLSLTFSFFWLGLSWNSSGRNWLWEDGSFPPPTLFSDKELASFNGSRDCAYFERGNIYASRCSAEIPWICEKTASLVKTEDLD",glycan array binding signal (z-score),[1],0.134
same,glycan array binding signal (z-score),[2],-0.661
same,glycan array binding signal (z-score),[3],-0.419
same,glycan array binding signal (z-score),[4],-0.651
same,glycan array binding signal (z-score),[5],-0.35
same,glycan array binding signal (z-score),[6],-0.503
same,glycan array binding signal (z-score),[7],-0.368
same,glycan array binding signal (z-score),[8],-0.548
same,glycan array binding signal (z-score),[9],-0.369
same,glycan array binding signal (z-score),[10],-0.463
same,glycan array binding signal (z-score),[11],0.459
same,glycan array binding signal (z-score),[12],-0.612
same,glycan array binding signal (z-score),[13],-0.692
same,glycan array binding signal (z-score),[14],-0.524
same,glycan array binding signal (z-score),[15],-0.685
same,glycan array binding signal (z-score),[16],-0.54
same,glycan array binding signal (z-score),[17],-0.08
same,glycan array binding signal (z-score),[18],-0.305
same,glycan array binding signal (z-score),[19],-0.189
same,glycan array binding signal (z-score),[20],0.111
same,glycan array binding signal (z-score),[21],-0.331
same,glycan array binding signal (z-score),[22],0.807
same,glycan array binding signal (z-score),[23],-0.577
same,glycan array binding signal (z-score),[24],-0.156
same,glycan array binding signal (z-score),[25],-0.718
same,glycan array binding signal (z-score),[26],0.576
same,glycan array binding signal (z-score),[27],0.051
same,glycan array binding signal (z-score),[28],0.021
same,glycan array binding signal (z-score),[29],-0.719
same,glycan array binding signal (z-score),[30],2.48
same,glycan array binding signal (z-score),[31],0.492
same,glycan array binding signal (z-score),[32],-0.241
same,glycan array binding signal (z-score),[33],-0.437
same,glycan array binding signal (z-score),[34],-0.236
same,glycan array binding signal (z-score),[35],-0.447
same,glycan array binding signal (z-score),[36],-0.403
same,glycan array binding signal (z-score),[37],-0.107
same,glycan array binding signal (z-score),[38],-0.572
same,glycan array binding signal (z-score),[39],-0.195
same,glycan array binding signal (z-score),[40],-0.357
same,glycan array binding signal (z-score),[41],-0.541
same,glycan array binding signal (z-score),[42],-0.256
same,glycan array binding signal (z-score),[43],-0.219
same,glycan array binding signal (z-score),[44],0.915
same,glycan array binding signal (z-score),[45],-0.714
same,glycan array binding signal (z-score),[46],-0.288
same,glycan array binding signal (z-score),[47],-0.185
